# Assay results as given in US20160311912A1.
# The chains behind the UniProt entries cited, without tags or fusion partners. Where a name states a change or a piece, a line headed by the entry shows the natural chain unless it says otherwise.
# UniProt P47871: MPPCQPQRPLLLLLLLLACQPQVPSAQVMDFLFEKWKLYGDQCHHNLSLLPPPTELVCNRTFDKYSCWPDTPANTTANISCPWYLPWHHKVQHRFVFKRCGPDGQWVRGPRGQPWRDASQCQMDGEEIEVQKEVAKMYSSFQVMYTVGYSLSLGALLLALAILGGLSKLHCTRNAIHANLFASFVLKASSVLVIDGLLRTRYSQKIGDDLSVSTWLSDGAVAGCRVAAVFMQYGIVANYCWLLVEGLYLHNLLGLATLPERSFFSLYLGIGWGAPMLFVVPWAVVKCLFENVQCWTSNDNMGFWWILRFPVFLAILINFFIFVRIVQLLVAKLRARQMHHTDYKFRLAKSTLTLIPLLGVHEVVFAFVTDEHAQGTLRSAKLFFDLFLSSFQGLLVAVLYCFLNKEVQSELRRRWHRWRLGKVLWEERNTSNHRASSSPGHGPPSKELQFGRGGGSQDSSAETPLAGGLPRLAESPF
# No constants are given. Whether binding was seen depends on the method and setting. Some results given as binding are weak or reduced against the parent protein; the word gives no strength. Tags and fused reporters may be left off the sequences shown.
# B1: anti-glucagon receptor antagonist antibody mAb5 (antibody, V domains shown)
# VH: QVQLVQSGAEVKKPGASVKVSCKASGYTFTDFSVHWVRQAPGQGLEWMGWINTETDETSYADDFKGRVTMTRDTSTSTVYMELSSLRSEDTAVYYCVKSRYWSYGPPDYWGQGTTVTVSS
# VL: DIQMTQSPSSLSASVGDRVTITCQASQNIRTAVVWYQQKPGKAPKLLIYLASNRHSGVPSRFSGSGSGTDFTFTISSLQPEDIATYYCLQHWTYPFTFGGGTKVEIKR
# Molecular target: human glucagon receptor in the mAb5:glucagon receptor crystal structure (human) (UniProt P47871)
# Test: crystal structure of the complex
binder,measurement,value
B1,binding,binds
